For three substances, binding results are on record in article doi:10.1101/2023.07.24.550265.

The chains behind the UniProt entries cited, without tags or fusion partners. Residues count along the entry.
UniProt P10721, residues 26-976: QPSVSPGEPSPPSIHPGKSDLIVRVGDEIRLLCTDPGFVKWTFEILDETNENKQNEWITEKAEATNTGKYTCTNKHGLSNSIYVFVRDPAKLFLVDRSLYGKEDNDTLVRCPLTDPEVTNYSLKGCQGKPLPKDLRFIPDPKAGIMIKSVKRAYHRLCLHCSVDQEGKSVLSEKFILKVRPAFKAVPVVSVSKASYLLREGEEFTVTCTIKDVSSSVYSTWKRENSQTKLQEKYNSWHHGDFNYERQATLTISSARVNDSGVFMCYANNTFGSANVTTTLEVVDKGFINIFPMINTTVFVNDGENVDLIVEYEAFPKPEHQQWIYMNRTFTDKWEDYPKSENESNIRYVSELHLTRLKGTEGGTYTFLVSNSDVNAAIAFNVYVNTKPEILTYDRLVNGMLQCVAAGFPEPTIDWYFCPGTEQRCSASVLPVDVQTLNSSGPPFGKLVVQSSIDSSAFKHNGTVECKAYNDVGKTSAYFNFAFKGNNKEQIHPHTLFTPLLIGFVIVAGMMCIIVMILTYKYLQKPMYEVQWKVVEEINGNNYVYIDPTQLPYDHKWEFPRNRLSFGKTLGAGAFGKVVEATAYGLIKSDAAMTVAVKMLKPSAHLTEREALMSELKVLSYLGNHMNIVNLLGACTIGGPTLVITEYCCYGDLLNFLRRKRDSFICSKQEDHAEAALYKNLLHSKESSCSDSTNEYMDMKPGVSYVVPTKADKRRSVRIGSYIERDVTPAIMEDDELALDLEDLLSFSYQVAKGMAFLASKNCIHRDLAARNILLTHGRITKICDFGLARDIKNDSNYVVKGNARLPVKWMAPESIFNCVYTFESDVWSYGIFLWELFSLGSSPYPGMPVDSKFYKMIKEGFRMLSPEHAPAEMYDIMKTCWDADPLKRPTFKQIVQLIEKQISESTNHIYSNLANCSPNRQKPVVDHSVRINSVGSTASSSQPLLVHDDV
UniProt P78527: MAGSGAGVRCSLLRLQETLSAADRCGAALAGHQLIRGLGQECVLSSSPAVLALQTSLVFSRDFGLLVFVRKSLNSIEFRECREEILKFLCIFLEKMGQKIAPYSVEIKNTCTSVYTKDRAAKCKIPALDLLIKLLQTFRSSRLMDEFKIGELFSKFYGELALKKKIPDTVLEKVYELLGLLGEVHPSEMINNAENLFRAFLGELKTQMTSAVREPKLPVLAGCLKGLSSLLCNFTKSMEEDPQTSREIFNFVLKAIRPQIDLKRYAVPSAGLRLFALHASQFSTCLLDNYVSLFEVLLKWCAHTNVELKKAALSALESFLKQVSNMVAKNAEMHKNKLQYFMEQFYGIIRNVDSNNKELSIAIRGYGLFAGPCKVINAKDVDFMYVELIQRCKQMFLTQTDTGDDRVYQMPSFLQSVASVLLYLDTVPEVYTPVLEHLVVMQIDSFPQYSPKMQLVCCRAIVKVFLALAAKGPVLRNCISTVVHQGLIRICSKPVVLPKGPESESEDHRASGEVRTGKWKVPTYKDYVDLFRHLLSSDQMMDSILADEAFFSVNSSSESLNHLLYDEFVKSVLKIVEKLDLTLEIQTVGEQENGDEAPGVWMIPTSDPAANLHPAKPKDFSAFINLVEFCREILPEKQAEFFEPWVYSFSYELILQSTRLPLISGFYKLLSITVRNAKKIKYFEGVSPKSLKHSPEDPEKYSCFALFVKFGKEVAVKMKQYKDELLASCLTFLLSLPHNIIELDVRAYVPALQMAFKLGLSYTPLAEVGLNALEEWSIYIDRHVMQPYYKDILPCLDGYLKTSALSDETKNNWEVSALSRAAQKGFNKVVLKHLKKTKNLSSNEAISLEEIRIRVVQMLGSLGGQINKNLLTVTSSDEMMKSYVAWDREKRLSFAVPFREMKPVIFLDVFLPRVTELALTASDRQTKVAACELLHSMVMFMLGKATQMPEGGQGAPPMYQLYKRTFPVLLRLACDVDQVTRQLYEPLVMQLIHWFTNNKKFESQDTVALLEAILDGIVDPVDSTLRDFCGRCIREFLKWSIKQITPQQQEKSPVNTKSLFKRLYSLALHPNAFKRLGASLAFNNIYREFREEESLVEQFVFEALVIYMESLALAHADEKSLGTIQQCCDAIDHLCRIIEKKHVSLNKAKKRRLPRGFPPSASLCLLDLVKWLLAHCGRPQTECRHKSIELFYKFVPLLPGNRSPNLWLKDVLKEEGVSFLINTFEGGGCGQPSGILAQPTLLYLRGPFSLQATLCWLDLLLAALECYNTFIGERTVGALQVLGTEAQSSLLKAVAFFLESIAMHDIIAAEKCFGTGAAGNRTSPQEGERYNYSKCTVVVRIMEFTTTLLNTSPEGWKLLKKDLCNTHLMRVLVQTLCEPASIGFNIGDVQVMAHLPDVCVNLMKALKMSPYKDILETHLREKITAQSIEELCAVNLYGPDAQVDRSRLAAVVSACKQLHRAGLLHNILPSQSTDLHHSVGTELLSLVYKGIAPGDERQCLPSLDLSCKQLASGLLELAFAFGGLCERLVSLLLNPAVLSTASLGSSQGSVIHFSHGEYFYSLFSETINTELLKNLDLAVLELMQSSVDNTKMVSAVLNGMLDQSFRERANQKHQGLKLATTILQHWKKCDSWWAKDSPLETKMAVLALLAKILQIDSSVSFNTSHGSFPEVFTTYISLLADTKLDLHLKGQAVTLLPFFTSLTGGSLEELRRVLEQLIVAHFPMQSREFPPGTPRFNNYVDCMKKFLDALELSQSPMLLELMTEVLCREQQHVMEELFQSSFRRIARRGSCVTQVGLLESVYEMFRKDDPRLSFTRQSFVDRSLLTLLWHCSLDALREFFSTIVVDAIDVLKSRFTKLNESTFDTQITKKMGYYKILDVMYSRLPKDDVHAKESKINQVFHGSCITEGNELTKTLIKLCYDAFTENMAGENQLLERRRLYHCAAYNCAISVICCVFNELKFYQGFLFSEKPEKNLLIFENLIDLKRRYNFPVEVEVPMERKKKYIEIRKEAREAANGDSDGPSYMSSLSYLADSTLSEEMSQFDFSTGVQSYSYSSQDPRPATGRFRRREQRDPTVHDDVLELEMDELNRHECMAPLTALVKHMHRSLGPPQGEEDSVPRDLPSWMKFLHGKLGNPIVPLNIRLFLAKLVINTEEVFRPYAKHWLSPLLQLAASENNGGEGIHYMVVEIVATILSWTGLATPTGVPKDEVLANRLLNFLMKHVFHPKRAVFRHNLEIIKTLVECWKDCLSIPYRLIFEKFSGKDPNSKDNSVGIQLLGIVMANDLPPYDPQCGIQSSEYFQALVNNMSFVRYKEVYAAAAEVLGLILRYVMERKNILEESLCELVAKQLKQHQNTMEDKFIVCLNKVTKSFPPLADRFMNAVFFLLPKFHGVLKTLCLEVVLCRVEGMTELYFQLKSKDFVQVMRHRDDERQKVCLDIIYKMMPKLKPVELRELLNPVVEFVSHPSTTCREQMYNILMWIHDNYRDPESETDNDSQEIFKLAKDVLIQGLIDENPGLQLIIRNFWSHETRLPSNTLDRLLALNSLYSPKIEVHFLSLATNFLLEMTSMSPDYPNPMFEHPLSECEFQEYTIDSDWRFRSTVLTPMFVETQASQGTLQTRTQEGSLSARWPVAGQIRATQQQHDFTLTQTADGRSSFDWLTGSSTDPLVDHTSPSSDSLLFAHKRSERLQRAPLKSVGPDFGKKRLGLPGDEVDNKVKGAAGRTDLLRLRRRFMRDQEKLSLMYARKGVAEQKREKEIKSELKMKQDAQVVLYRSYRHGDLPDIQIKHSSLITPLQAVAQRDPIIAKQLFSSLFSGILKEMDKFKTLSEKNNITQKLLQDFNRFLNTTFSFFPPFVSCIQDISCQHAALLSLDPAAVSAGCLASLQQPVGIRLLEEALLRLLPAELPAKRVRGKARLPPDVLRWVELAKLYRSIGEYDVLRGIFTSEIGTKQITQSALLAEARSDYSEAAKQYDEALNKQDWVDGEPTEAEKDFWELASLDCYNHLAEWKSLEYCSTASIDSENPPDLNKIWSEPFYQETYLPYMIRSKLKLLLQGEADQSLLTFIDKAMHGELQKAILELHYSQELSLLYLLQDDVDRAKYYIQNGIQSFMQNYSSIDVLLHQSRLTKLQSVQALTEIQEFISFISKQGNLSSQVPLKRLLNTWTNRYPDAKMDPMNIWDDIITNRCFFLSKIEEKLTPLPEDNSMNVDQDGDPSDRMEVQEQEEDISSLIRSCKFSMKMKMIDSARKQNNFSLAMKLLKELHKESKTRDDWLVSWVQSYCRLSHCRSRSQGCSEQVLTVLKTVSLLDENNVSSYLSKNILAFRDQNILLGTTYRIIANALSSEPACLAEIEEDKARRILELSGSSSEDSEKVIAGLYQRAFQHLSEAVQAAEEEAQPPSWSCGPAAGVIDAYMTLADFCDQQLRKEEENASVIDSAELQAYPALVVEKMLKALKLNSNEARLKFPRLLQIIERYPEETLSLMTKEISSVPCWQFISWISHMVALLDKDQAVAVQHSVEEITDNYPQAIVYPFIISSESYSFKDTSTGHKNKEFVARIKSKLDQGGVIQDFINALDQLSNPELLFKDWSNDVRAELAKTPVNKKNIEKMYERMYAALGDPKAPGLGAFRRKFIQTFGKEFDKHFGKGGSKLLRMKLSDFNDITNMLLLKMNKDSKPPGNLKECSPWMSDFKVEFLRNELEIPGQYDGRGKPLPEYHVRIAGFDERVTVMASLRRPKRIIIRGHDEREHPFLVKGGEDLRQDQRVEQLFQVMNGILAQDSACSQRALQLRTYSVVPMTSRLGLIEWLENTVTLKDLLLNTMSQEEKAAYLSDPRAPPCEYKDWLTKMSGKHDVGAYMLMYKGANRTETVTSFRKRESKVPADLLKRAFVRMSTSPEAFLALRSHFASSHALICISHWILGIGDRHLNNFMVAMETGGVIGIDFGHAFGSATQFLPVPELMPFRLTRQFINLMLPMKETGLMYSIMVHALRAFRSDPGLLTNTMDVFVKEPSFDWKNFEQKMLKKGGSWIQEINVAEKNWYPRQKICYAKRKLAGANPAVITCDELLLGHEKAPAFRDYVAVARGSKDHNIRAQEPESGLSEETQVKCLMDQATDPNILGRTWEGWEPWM
UniProt P35222: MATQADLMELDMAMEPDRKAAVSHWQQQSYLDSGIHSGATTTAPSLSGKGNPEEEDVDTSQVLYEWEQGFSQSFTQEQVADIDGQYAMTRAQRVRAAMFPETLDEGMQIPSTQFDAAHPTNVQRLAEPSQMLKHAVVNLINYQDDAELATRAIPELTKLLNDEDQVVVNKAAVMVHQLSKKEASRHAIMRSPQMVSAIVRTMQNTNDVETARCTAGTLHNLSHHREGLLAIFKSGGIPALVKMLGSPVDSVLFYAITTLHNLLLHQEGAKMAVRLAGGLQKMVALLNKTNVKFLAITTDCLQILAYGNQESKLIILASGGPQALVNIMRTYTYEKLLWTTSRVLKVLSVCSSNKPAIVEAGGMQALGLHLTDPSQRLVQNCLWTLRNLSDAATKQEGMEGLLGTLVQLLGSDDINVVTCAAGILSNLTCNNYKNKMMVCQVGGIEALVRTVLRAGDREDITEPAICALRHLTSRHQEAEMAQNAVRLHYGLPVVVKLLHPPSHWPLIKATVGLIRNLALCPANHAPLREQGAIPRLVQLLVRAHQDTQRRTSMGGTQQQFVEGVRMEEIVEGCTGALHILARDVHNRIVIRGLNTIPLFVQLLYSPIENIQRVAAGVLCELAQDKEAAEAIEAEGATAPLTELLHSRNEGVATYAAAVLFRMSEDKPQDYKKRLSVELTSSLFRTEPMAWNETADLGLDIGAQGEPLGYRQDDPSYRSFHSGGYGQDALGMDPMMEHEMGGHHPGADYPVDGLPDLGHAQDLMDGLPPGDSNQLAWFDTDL

No constants are given. Whether binding was seen depends on the method and setting. In cells and extracts the contact can be indirect. Here binding means that the protein was enriched with, or labelled near, the bait; the list need not be complete.

This test addresses KIT receptor tyrosine kinase (UniProt P10721). Kind of test: affinity purification with mass spectrometry.

On to “DNA-dependent protein kinase, catalytic subunit (from UniProt P78527 1-4128)”, for which the binding result is recorded as “binds”.

For “Poly [ADP-ribose] polymerase 1 (from UniProt P09874 1-1014)”, the binding entry is “binds”.

On to β-catenin (from UniProt P35222 1-781), for which the binding entry is listed as “binds”.
